From the supplement of paper PMC4604168 (melanoma cell lines)
This is one part of the list. Many values rest on one well or one pass, so single values are uncertain.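 Cells were imaged in 1,536-well plates, and nuclei stained with an antibody against cleaved PARP were counted against all DNA-stained nuclei to give the apoptosis fraction. Screening doses were chosen to leave most cells alive, and resting and induced cleaved-PARP levels differ strongly between cell lines.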

Key:
Assay in all cases: cleaved PARP positive nuclei fraction relative to DMSO control; melanoma cells; higher = more apoptosis
Conditions in all cases: library dose: low library concentration; 72 h
WM115 = tested on: WM115
WM1716 = tested on: WM1716
WM1745 = tested on: WM1745
WM3526 = tested on: WM3526
WM3619 = tested on: WM3619
WM451Lu = tested on: WM451Lu

SMILES	cleaved PARP positive nuclei fraction (WM115)	cleaved PARP positive nuclei fraction (WM1716)	cleaved PARP positive nuclei fraction (WM1745)	cleaved PARP positive nuclei fraction (WM3526)	cleaved PARP positive nuclei fraction (WM3619)	cleaved PARP positive nuclei fraction (WM451Lu)
O=C(/C=C/c1cccnc1)NCCCCC1CCN(C(=O)c2ccccc2)CC1 + CC(=O)O[C@@]12CO[C@@H]1C[C@H](O)[C@@]1(C)C(=O)[C@H](O)C3=C(C)[C@@H](OC(=O)[C@H](O)[C@@H](NC(=O)OC(C)(C)C)c4ccccc4)C[C@@](O)([C@@H](OC(=O)c4ccccc4)[C@H]21)C3(C)C [Docetaxel] (first compound 0.01 µM, partner dose 0.0001 µM)	144%	191%	168%	347%	134%	81.5%
Cc1cc(Nc2cc(N3CCN(C)CC3)nc(Sc3ccc(NC(=O)C4CC4)cc3)n2)n[nH]1 [Tozasertib] + Clc1ccc(Nc2nnc(Cc3ccncc3)c3ccccc23)cc1 [vatalanib] (first compound 0.006 µM, partner dose 2 µM)	177%	41.3%	111%	45.4%	205%	48.4%
CCCCCCCCCCCCCCCCCCOP(=O)([O-])OC1CC[N+](C)(C)CC1 [Perifosine] + COCC[n+]1c2c(n(Cc3cnccn3)c1C)C(=O)c1ccccc1C2=O [YM155] (first compound 0.4 µM, partner dose 0.0004 µM)	122%	58.8%	82.7%	40.1%	104%	76.7%
COc1cc([C@@H]2c3cc4c(cc3[C@@H](O[C@@H]3O[C@@H]5CO[C@@H](C)O[C@H]5[C@H](O)[C@H]3O)[C@H]3COC(=O)[C@H]23)OCO4)cc(OC)c1O [etoposide] + Cn1sc(=O)n(Cc2ccccc2)c1=O [TDZD-8] (first compound 0.02 µM, partner dose 0.4 µM)	91.3%	79.9%	95%	59.5%	101%	134%
Cc1cc(Nc2cc(N3CCN(C)CC3)nc(Sc3ccc(NC(=O)C4CC4)cc3)n2)n[nH]1 [Tozasertib] + CCCCCCCCCCCCCCCCCCOP(=O)([O-])OC1CC[N+](C)(C)CC1 [Perifosine] (first compound 0.006 µM, partner dose 0.4 µM)	146%	35.6%	88.2%	37.8%	102%	38.7%
Cc1ccc(Nc2nccc(N(C)c3ccc4c(C)n(C)nc4c3)n2)cc1S(N)(=O)=O [Pazopanib] + COc1ccc(-c2ccc3c(N4CCOCC4)nc(N4C[C@@H](C)O[C@@H](C)C4)nc3n2)cc1CO [KU0063794] (first compound 0.4 µM, partner dose 0.02 µM)	72.9%	180%	91.1%	83.8%	111%	48.3%
CC[C@]1(O)C[C@H]2CN(CCc3c([nH]c4ccccc34)[C@@](C(=O)OC)(c3cc4c(cc3OC)N(C=O)[C@H]3[C@@](O)(C(=O)OC)[C@H](OC(C)=O)[C@]5(CC)C=CCN6CC[C@]43[C@@H]65)C2)C1 [vincristine] + O=C(O)c1ccc(-c2c[nH]c3ncc(-c4ccccc4)cc23)cc1C1CCCC1 [GSK650394] (first compound 0.0001 µM, partner dose 0.16 µM)	2400%	439%	106%	118%	158%	197%
CCCCCCCCCCCCCCCCCCOP(=O)([O-])OC1CC[N+](C)(C)CC1 [Perifosine] + Cc1ccc(NC(=O)c2cccc(N(C)C)c2)cc1NC(=O)c1ccc(O)cc1 [ZM336372] (first compound 0.4 µM, partner dose 2 µM)	44.8%	57.1%	117%	111%	111%	52.9%
N#CC[C@H](C1CCCC1)n1cc(-c2ncnc3[nH]ccc23)cn1 [ruxolitinib] + Cn1sc(=O)n(Cc2ccccc2)c1=O [TDZD-8] (first compound 1 µM, partner dose 0.4 µM)	114%	82.3%	88.9%	77.6%	94.6%	77.6%
Cc1cc(Nc2cc(N3CCN(C)CC3)nc(Sc3ccc(NC(=O)C4CC4)cc3)n2)n[nH]1 [Tozasertib] + Cc1nc(Nc2ncc(C(=O)Nc3c(C)cccc3Cl)s2)cc(N2CCN(CCO)CC2)n1 [dasatanib] (first compound 0.006 µM, partner dose 0.004 µM)	107%	44.4%	165%	54.2%	118%	136%
O=C(Nc1cc(C(F)(F)F)cc(C(F)(F)F)c1)c1cc(Cl)ccc1O + OCc1c[nH]c2ccccc12 [Indole-3-carbinol] (first compound 0.016 µM, partner dose 0.8 µM)	78.4%	72.5%	84.8%	59.3%	105%	53.2%
CC[C@]1(O)C[C@H]2CN(CCc3c([nH]c4ccccc34)[C@@](C(=O)OC)(c3cc4c(cc3OC)N(C=O)[C@H]3[C@@](O)(C(=O)OC)[C@H](OC(C)=O)[C@]5(CC)C=CCN6CC[C@]43[C@@H]65)C2)C1 [vincristine] + CCN(CC)CCCCNc1ncc2cc(-c3cc(OC)cc(OC)c3)c(NC(=O)NC(C)(C)C)nc2n1 [PD173074] (first compound 0.0001 µM, partner dose 0.1 µM)	913%	257%	106%	149%	112%	399%
N#CC[C@H](C1CCCC1)n1cc(-c2ncnc3[nH]ccc23)cn1 [ruxolitinib] + COc1ccc(Cl)c(Nc2nc3ccccc3nc2NS(=O)(=O)c2cccc(NC(=O)C(C)(C)N)c2)c1 [XL147] (first compound 1 µM, partner dose 0.8 µM)	114%	40%	83.8%	190%	93.5%	69.9%
Cc1cc(Nc2cc(N3CCN(C)CC3)nc(Sc3ccc(NC(=O)C4CC4)cc3)n2)n[nH]1 [Tozasertib] + OCc1c[nH]c2ccccc12 [Indole-3-carbinol] (first compound 0.006 µM, partner dose 0.8 µM)	107%	98.1%	105%	37.1%	106%	91.2%
O=c1[nH]nc(Sc2ncc([N+](=O)[O-])s2)n1-c1ccc2c(c1)OCCO2 + COc1ccc(C2=N[C@@H](c3ccc(Cl)cc3)[C@@H](c3ccc(Cl)cc3)N2C(=O)N2CCNC(=O)C2)c(OC(C)C)c1 [Nutlin-3] (first compound 0.2 µM, partner dose 0.1 µM)	117%	64.7%	114%	39.3%	80%	28.4%
N#CC[C@H](C1CCCC1)n1cc(-c2ncnc3[nH]ccc23)cn1 [ruxolitinib] + C[C@@H](Oc1cc(-c2cnn(C3CCNCC3)c2)cnc1N)c1c(Cl)ccc(F)c1Cl [Crizotinib] (first compound 1 µM, partner dose 0.2 µM)	41.1%	84.1%	86.2%	235%	82.2%	64.6%
Cc1cc(Nc2cc(N3CCN(C)CC3)nc(Sc3ccc(NC(=O)C4CC4)cc3)n2)n[nH]1 [Tozasertib] + c1cc(-c2cnn3cc(-c4ccc(OCCN5CCCCC5)cc4)cnc23)ccn1 [Dorsomorphin] (first compound 0.006 µM, partner dose 0.4 µM)	75.7%	40.7%	110%	70.7%	99.2%	99.4%
O=c1[nH]nc(Sc2ncc([N+](=O)[O-])s2)n1-c1ccc2c(c1)OCCO2 + C=CCn1c(=O)c2cnc(Nc3ccc(N4CCN(C)CC4)cc3)nc2n1-c1cccc(C(C)(C)O)n1 [MK1775] (first compound 0.2 µM, partner dose 0.02 µM)	105%	84.2%	103%	114%	99.3%	253%
O=c1[nH]nc(Sc2ncc([N+](=O)[O-])s2)n1-c1ccc2c(c1)OCCO2 + C[C@]1(O)C[C@@H](c2nc(-c3ccc4ccc(-c5ccccc5)nc4c3)c3c(N)nccn32)C1 [OSI906] (first compound 0.2 µM, partner dose 0.4 µM)	191%	36.9%	119%	61%	108%	22.3%
Cc1cn(-c2cc(NC(=O)c3ccc(C)c(Nc4nccc(-c5cccnc5)n4)c3)cc(C(F)(F)F)c2)cn1 [nilotinib] + Cn1cnc2c(F)c(Nc3ccc(Br)cc3Cl)c(C(=O)NOCCO)cc21 [selumetinib] (first compound 0.2 µM, partner dose 0.015 µM)	116%	31.2%	109%	81%	213%	37.2%
CCCCCCCCCCCCCCCCCCOP(=O)([O-])OC1CC[N+](C)(C)CC1 [Perifosine] + Cn1cnc2c(F)c(Nc3ccc(Br)cc3Cl)c(C(=O)NOCCO)cc21 [selumetinib] (first compound 0.4 µM, partner dose 0.015 µM)	109%	198%	94.2%	46.3%	101%	25.5%
N#CC[C@H](C1CCCC1)n1cc(-c2ncnc3[nH]ccc23)cn1 [ruxolitinib] + Nc1cccc2c1CN(C1CCC(=O)NC1=O)C2=O [lenalidomide] (first compound 1 µM, partner dose 1 µM)	43.9%	35.6%	90.6%	36.9%	75%	71.6%
Cc1ccc(Nc2nccc(N(C)c3ccc4c(C)n(C)nc4c3)n2)cc1S(N)(=O)=O [Pazopanib] + Clc1ccc(Nc2nnc(Cc3ccncc3)c3ccccc23)cc1 [vatalanib] (first compound 0.4 µM, partner dose 2 µM)	53.5%	73.5%	108%	54.4%	107%	48.7%

Laid out differently: results already given
Cc1cc(Nc2cc(N3CCN(C)CC3)nc(Sc3ccc(NC(=O)C4CC4)cc3)n2)n[nH]1 [Tozasertib] + c1cc(-c2cnn3cc(-c4ccc(OCCN5CCCCC5)cc4)cnc23)ccn1 [Dorsomorphin] (first compound 0.006 µM, partner dose 0.4 µM)
  cleaved PARP positive nuclei fraction (WM115): 75.7%; cleaved PARP positive nuclei fraction (WM1716): 40.7%; cleaved PARP positive nuclei fraction (WM1745): 110%; cleaved PARP positive nuclei fraction (WM3526): 70.7%; cleaved PARP positive nuclei fraction (WM3619): 99.2%; cleaved PARP positive nuclei fraction (WM451Lu): 99.4%
O=c1[nH]nc(Sc2ncc([N+](=O)[O-])s2)n1-c1ccc2c(c1)OCCO2 + C=CCn1c(=O)c2cnc(Nc3ccc(N4CCN(C)CC4)cc3)nc2n1-c1cccc(C(C)(C)O)n1 [MK1775] (first compound 0.2 µM, partner dose 0.02 µM)
  cleaved PARP positive nuclei fraction (WM115): 105%; cleaved PARP positive nuclei fraction (WM1716): 84.2%; cleaved PARP positive nuclei fraction (WM1745): 103%; cleaved PARP positive nuclei fraction (WM3526): 114%; cleaved PARP positive nuclei fraction (WM3619): 99.3%; cleaved PARP positive nuclei fraction (WM451Lu): 253%
